Results: the supplement of paper PMC8728848
The other results are listed elsewhere or left out.

What was measured:
Experiment in all cases: glycan array binding signal (z-score within array); higher = stronger binding
Details in all cases: glycan notation: IUPAC condensed, linker removed
[1] = target: Fuc(a1-2)Gal(b1-4)GlcNAc(b1-3)Gal(b1-4)GlcNAc(b1-3)Gal(b1-4)GlcNAc
In short: (§1)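 The binding signal is a Z-score computed within each array. Data were drawn from 3228 arrays in the Consortium for Functional Glycomics database, restricted to those with a known protein sequence. Scores were averaged over arrays of the same protein sequence at different concentrations or buffers, and over linkers, and negative values can be taken as non-binding.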

[2] = target: Fuc(a1-2)Gal(b1-4)GlcNAc(b1-3)GalNAc
In short: as §1

[3] = target: Fuc(a1-2)Gal(b1-4)GlcNAc(b1-3)[Fuc(a1-2)Gal(b1-4)GlcNAc(b1-6)]GalNAc
In short: as §1

[4] = target: Fuc(a1-2)Gal(b1-4)GlcNAc(b1-3)[Fuc(a1-3)[Gal(b1-4)]GlcNAc(b1-6)]Gal(b1-4)Glc
In short: as §1

[5] = target: Fuc(a1-2)Gal(b1-4)GlcNAc(b1-6)GalNAc
In short: as §1

[6] = target: Fuc(a1-2)Gal(b1-4)GlcNAc6S
In short: as §1

[7] = target: Fuc(a1-2)Gal(b1-4)[Fuc(a1-3)]GlcNAc
In short: as §1

[8] = target: Fuc(a1-2)Gal(b1-4)[Fuc(a1-3)]GlcNAc(b1-2)Man(a1-3)[Fuc(a1-2)Gal(b1-4)[Fuc(a1-3)]GlcNAc(b1-2)Man(a1-6)]Man(b1-4)GlcNAc(b1-4)[Fuc(a1-6)]GlcNAc
In short: as §1

[9] = target: Fuc(a1-2)Gal(b1-4)[Fuc(a1-3)]GlcNAc(b1-2)[Fuc(a1-2)Gal(b1-4)[Fuc(a1-3)]GlcNAc(b1-4)]Man(a1-3)[Fuc(a1-2)Gal(b1-4)[Fuc(a1-3)]GlcNAc(b1-2)Man(a1-6)]Man(b1-4)GlcNAc(b1-4)GlcNAc
In short: as §1

[10] = target: Fuc(a1-2)Gal(b1-4)[Fuc(a1-3)]GlcNAc(b1-3)Gal(b1-4)[Fuc(a1-3)]GlcNAc
In short: as §1

[11] = target: Fuc(a1-2)Gal(b1-4)[Fuc(a1-3)]GlcNAc(b1-3)Gal(b1-4)[Fuc(a1-3)]GlcNAc(b1-3)Gal(b1-4)[Fuc(a1-3)]GlcNAc
In short: as §1

[12] = target: Fuc(a1-2)Gal(b1-4)[Fuc(a1-3)]GlcNAc(b1-3)GalNAc
In short: as §1

[13] = target: Fuc(a1-2)Gal(b1-4)[Fuc(a1-3)]GlcNAc(b1-3)[Neu5Ac(a2-6)Gal(b1-4)GlcNAc(b1-6)]Gal(b1-4)Glc
In short: as §1

[14] = target: Fuc(a1-2)Gal3S(b1-4)GlcNAc
In short: as §1

[15] = target: Fuc(a1-2)Gal6S(b1-3)GlcNAc
In short: as §1

[16] = target: Fuc(a1-2)Gal6S(b1-3)GlcNAc6S
In short: as §1

[17] = target: Fuc(a1-2)Gal6S(b1-4)Glc
In short: as §1

[18] = target: Fuc(a1-2)Gal6S(b1-4)Glc6S
In short: as §1

[19] = target: Fuc(a1-2)[Gal(a1-3)]Gal
In short: as §1

[20] = target: Fuc(a1-2)[Gal(a1-3)]Gal(b1-3)GalNAc
In short: as §1

[21] = target: Fuc(a1-2)[Gal(a1-3)]Gal(b1-3)GalNAc(b1-3)Gal(a1-4)Gal(b1-4)Glc
In short: as §1

[22] = target: Fuc(a1-2)[Gal(a1-3)]Gal(b1-3)GlcNAc
In short: as §1

[23] = target: Fuc(a1-2)[Gal(a1-3)]Gal(b1-3)GlcNAc(b1-2)Man(a1-3)[Fuc(a1-2)[Gal(a1-3)]Gal(b1-3)GlcNAc(b1-2)Man(a1-6)]Man(b1-4)GlcNAc(b1-4)GlcNAc
In short: as §1

[24] = target: Fuc(a1-2)[Gal(a1-3)]Gal(b1-3)GlcNAc(b1-2)Man(a1-3)[Fuc(a1-2)[Gal(a1-3)]Gal(b1-3)GlcNAc(b1-2)Man(a1-6)]Man(b1-4)GlcNAc(b1-4)[Fuc(a1-6)]GlcNAc
In short: as §1

[25] = target: Fuc(a1-2)[Gal(a1-3)]Gal(b1-3)GlcNAc(b1-3)GalNAc
In short: as §1

[26] = target: Fuc(a1-2)[Gal(a1-3)]Gal(b1-3)GlcNAc(b1-6)GalNAc
In short: as §1

[27] = target: Fuc(a1-2)[Gal(a1-3)]Gal(b1-4)Glc
In short: as §1

[28] = target: Fuc(a1-2)[Gal(a1-3)]Gal(b1-4)GlcNAc
In short: as §1

[29] = target: Fuc(a1-2)[Gal(a1-3)]Gal(b1-4)GlcNAc(b1-2)Man
In short: as §1

[30] = target: Fuc(a1-2)[Gal(a1-3)]Gal(b1-4)GlcNAc(b1-2)Man(a1-3)[Fuc(a1-2)[Gal(a1-3)]Gal(b1-4)GlcNAc(b1-2)Man(a1-6)]Man(b1-4)GlcNAc(b1-4)GlcNAc
In short: as §1

B1: FimA (Actinomyces oris) (protein)
chain: MHHHHHHSSGVDLGTENLYFQSNAETPNYGNIKTDATGSLVIHKHLTGGGKDIGTPTGTAQNADDKGPAVEGVVFTAYPITDINLKDPAGWDTISNLSRTGVPDSACANPAAPTLGAHQFGTPKVSPATTKEGLATITEMPVQAYLVCETTTPGDIVQKAKPFVVTIPHPNTAAGADGQWIYDVNVYPKNEAIDVDKTIQAQKLNGYGVGSLIKFPVESTAPTLDAKSFYKYFQLKDTLDERLSEVTATDVSLEGTPLQPTDYKVETKQQTVTVTFTAEGLKKIKAAPGKKVSAVFQGKVTKAGNGAITNRAQVISDTLYAEQPPTPETPPTDPENPPTSDEVISRWGDLSIKKVDTHQQGQTKAGLQGAQFQLYKAKNAYANTCSNEKEGAPIAINGQTTLTTDAQGAIDIKGLFISDSIDGADRDNQVNAMERCYVLVETKAPAGYVLPAGNGAATPVKVKAGEETTDNVTVENTKQSVPGLPLTG
glycan array binding signal (z-score) [1]: -0.835 | glycan array binding signal (z-score) [2]: -0.785 | glycan array binding signal (z-score) [3]: -0.288 | glycan array binding signal (z-score) [4]: -0.576 | glycan array binding signal (z-score) [5]: -0.068 | glycan array binding signal (z-score) [6]: -0.627 | glycan array binding signal (z-score) [7]: -0.015 | glycan array binding signal (z-score) [8]: 0.32 | glycan array binding signal (z-score) [9]: -0.358 | glycan array binding signal (z-score) [10]: 0.481 | glycan array binding signal (z-score) [11]: -0.317 | glycan array binding signal (z-score) [12]: 1.3 | glycan array binding signal (z-score) [13]: -0.445 | glycan array binding signal (z-score) [14]: -0.091 | glycan array binding signal (z-score) [15]: 0.258 | glycan array binding signal (z-score) [16]: -0.064 | glycan array binding signal (z-score) [17]: 0.428 | glycan array binding signal (z-score) [18]: -0.826 | glycan array binding signal (z-score) [19]: 0.708 | glycan array binding signal (z-score) [20]: 0.964 | glycan array binding signal (z-score) [21]: 0.236 | glycan array binding signal (z-score) [22]: 0.004 | glycan array binding signal (z-score) [23]: -1 | glycan array binding signal (z-score) [24]: -0.466 | glycan array binding signal (z-score) [25]: -0.525 | glycan array binding signal (z-score) [26]: -0.362 | glycan array binding signal (z-score) [27]: -0.096 | glycan array binding signal (z-score) [28]: 0.372 | glycan array binding signal (z-score) [29]: 0.046 | glycan array binding signal (z-score) [30]: 5.11
